# Data from publication PMC7501309, “Structure and mechanism of a dehydratase/decarboxylase enzyme couple involved in polyketide β-methyl branch incorporation” (Scientific Reports, 2020).
# Numbering of substitutions follows the chain as printed. Names and notes keep the numbering of the source. No constants are given. Whether binding was seen depends on the method and setting. Some results given as binding are weak or reduced against the parent protein; the word gives no strength.
# B1: PksH-D68A (enzyme, UniProt P40805 1-259)
# chain: MDLVTYQTIKVRFQASVCYITFHRPEANNTINDTLIEECLQVLNQCETSTVTVVVLEGLPEVFCFGAAFQEIYQEMKRGRKQASSQEPLYDLWMKLQTGPYVTISHVRGKVNAGGLGFVSATDIAIADQTASFSLSELLFGLYPACVLPFLIRRIGRQKAHYMTLMTKPISVQEASEWGLIDAFDAESDVLLRKHLLRLRRLNKKGIAHYKQFMSSLDHQVSRAKATALTANQDMFSDPQNQMGIIRYVETGQFPWEDQ
# B2: PksH-E137A (enzyme, UniProt P40805 1-259)
# chain: B1 chain with A68D, E137A
# How the values were obtained:
# [1] = biological target: PksH-D68A (Bacillus subtilis 168) (UniProt P40805); experiment: SEC; PksH point mutants compared with the wild type; data not shown; both purified
# [2] = biological target: PksH-E137A (Bacillus subtilis 168) (UniProt P40805); experiment: as above
Binder,binding [1],binding [2]
B1,binds,–
B2,–,binds
